We go through 62 compounds from PubChem BioAssay AID2685 (National Center for Advancing Translational Sciences (NCATS), 2010).

This assay can be described thus: qHTS Assay for Lipid Storage Modulators in Drosophila S3 Cells.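 For cell number change: cells counted by Cell Tracker Red CMTPX staining in the red channel.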 The conditions noted are these: BODIPY lipid droplet fluorescence, 18-24 h; for cell number change: measured here: cell count max response, cells fed with added oleic acid. In short, it runs like this:
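Laser-scanning cytometry quantifies lipid droplet accumulation (500–530 nm total intensity; droplet/cell object ratio) in oleic acid-fed (400 uM added) Drosophila S3 cells treated with a concentration series. 20 uM Triacsin C defined 100% inhibition.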

Where [1] appears, read: measured here: cell number channel AC50, cells fed with added oleic acid.
Where [2] appears, read: measured here: lipid fluorescence (Fed channel) AC50, cells fed with added oleic acid.

Some of the results follow. The main result of the screen is listed elsewhere. These columns were measured beside it and carry no call. The list favours compounds with an active or inconclusive main result. Words in brackets tell the shape of the fitted curve; partial curves, single points and poor fits give uncertain potencies.

`COc1ccc(N2CCN(C(=O)Cn3cncn3)CC2)cc1`: the cell number change was 1.04%.

As to `Cc1nnc(SCc2ccc(C(=O)O)cc2)s1`, the cell number change was -33.7%. For the same compound, under setting [1], the concentration at half-maximal activity (AC50) (commonly the concentration giving half of the maximal activity seen) is 3.66 µM [falling, full curve]. Moreover, under setting [2], the concentration at half-maximal activity (AC50) was 1.3 µM [falling, full curve, poor fit]. In the case of `c1cncc(-c2nn[nH]n2)c1`, the cell number change is -1%.

`CC(=O)c1cnn(-c2ccc(Cl)c(Cl)c2Cl)c1C`: the cell number change was 14.2%. Further, the AC50 under setting [2] was 0.058 µM [rising, full curve]. For `CCOc1ccc(CCNC(=O)COC(=O)/C=C/c2ccccc2)cc1OCC`, the cell number change was -96.1%. Under setting [1], the AC50 is 10.3 µM [falling, partial curve]. In addition, the concentration at half-maximal activity (AC50) under setting [2] was 14.6 µM [falling, partial curve]. Consider `O=C(Nc1c(C(=O)c2ccccc2)oc2ccccc12)c1cc(-c2ccccc2O)n[nH]1`, for which the cell number change was -27%. As to `CC(On1nnc2ccccc21)C(=O)N1CCN(Cc2ccccc2)CC1` (centres undefined), the cell number change was 27.6%. In the case of `Cc1ccc(C(=O)Nc2ccc(C(=O)O)cc2NC(=O)c2ccc(C)cc2)cc1`, the cell number change is 4.53%. Also, the AC50 under setting [2] was 3.66 µM [rising, single point]. For `CCCCc1c(O)nc(SCC(=O)Nc2ccc3c(c2)CCC3)[nH]c1=O`, the cell number change came to 20.2%. Moreover, under setting [2], the half-maximal activity concentration (AC50) is 0.116 µM [falling, full curve, poor fit]. Consider `COC(=O)c1cc([N+](=O)[O-])ccc1N1CCN(Cc2ccccc2)CC1`, for which the cell number change was found to be 0.627%. The concentration at half-maximal activity (AC50) under setting [2] was 2.06 µM [rising, full curve, poor fit]. In the case of `O=C(CN1CCCc2ccccc21)N/N=C/c1ccc(O)cc1O`, the cell number change was -16.2%. Further, the concentration at half-maximal activity (AC50) under setting [2] is 18.4 µM [falling, single point].

Consider `COCCN1C(=S)N[C@@H](c2ccccc2)C(C(=O)OC)=C1C`, for which the cell number change amounted to 4.3%. Besides, the concentration at half-maximal activity (AC50) under setting [2] is 29.1 µM [rising, single point]. For `CCOc1ccc(-n2c(=O)c3sccc3n(Cc3cccc([N+](=O)[O-])c3)c2=O)cc1`, the AC50 under setting [1] is 6.51 µM [rising, partial curve, poor fit].

Take `CC1CCC(NC(=O)CN2CCCN(Cc3ccc(F)cc3Cl)C2=O)CC1` (centres undefined): the cell number change is 14%. Under setting [2], the half-maximal activity concentration (AC50) was 0.0082 µM [falling, full curve, poor fit].

Consider `O=C(CNc1cccc(C(F)(F)F)c1)Nc1cccc(S(=O)(=O)N2CCCC2)c1`, for which the cell number change came out at 18.8%. Also, the AC50 under setting [2] was 0.731 µM [falling, partial curve, poor fit]. `O=C(c1cccc(Cl)c1)N1CCN(c2ncccn2)CC1`: the cell number change is -4.96%. The same measure, in the same setting: under `COc1ccccc1NC1C=CS(=O)(=O)C1` (centres undefined) stands -10.1%; under `O=C(CN1C(=O)C2CC=CCC2C1=O)Nc1nnc(SCc2ccc(F)cc2)s1` (centres undefined), 1.97%. `COc1ccc(C(=O)NCC2(N3CCCCC3)CCCCC2)cc1S(=O)(=O)N(C)C`: the cell number change was -0.794%. For the same compound, the concentration at half-maximal activity (AC50) under setting [2] was 14.6 µM [rising, partial curve]. As to `COc1cccc(CNCCSc2nnnn2C)c1OC`, the cell number change is -54.4%. Moreover, the concentration at half-maximal activity (AC50) under setting [1] was 3.66 µM [falling, full curve]. Moreover, the AC50 under setting [2] is 3.66 µM [falling, full curve]. `CC(=O)N(CCc1cccc(C)c1)Cc1cc2ccc(C)cc2[nH]c1=O`: the cell number change was -6.3%. In addition, the AC50 under setting [2] was 7.31 µM [falling, partial curve].

With `O=C(Nc1ccccc1)C1=C(O)CC(c2ccc(Cl)cc2)N2CCN=C12` (centres undefined), the cell number change is -59.1%. Moreover, under setting [1], the half-maximal activity concentration (AC50) was 20.6 µM [falling, single point]. The half-maximal activity concentration (AC50) under setting [2] was 29.1 µM [falling, single point].

Consider `COc1ccc(-c2sc3cc4c(cc3c2C#CCO)OCO4)cc1`, for which the cell number change is -14.2%. The AC50 under setting [2] was 1.16 µM [rising, single point]. In the case of `Cn1c(C2=C(O)CN(c3ccccc3)C2=N)nc2ccccc21`, the AC50 is 0.58 µM [falling, single point] under setting [1] and 0.58 µM [falling, single point] under setting [2]. Take `COc1ccc(C(O)(CC(C)C)C(CN2CCOCC2)c2ccccc2)cc1` (centres undefined): the cell number change came out at 47.2%. The half-maximal activity concentration (AC50) under setting [1] is 29.1 µM [rising, single point].

For `O=C(CSc1ccccn1)Nc1ccc2c(c1)OCO2`, the cell number change was determined as 18.6%. For the same compound, under setting [2], the concentration at half-maximal activity (AC50) was 1.84 µM [rising, partial curve].

For `Cc1c(NC(=O)c2c([N+](=O)[O-])cnn2C)c(=O)n(-c2ccccc2)n1C`, the cell number change came out at 10.5%. For the compound `CC(C(=O)NC1CCCC1)N1CCN(Cc2ccccc2)CC1` (centres undefined), the cell number change is -24.3%. For the same compound, the half-maximal activity concentration (AC50) under setting [2] was 18.4 µM [falling, single point]. As for `Cc1ccc(CCNC(=O)C2CCC(CNc3c(N4CCCC4)c(=O)c3=O)CC2)cc1` (centres undefined), the cell number change worked out at 31.3%. Moreover, the AC50 under setting [1] was 0.231 µM [rising, full curve, poor fit]. As for `O=C(O)C(Cc1ccccc1-c1ccccc1)C(=O)O`, the cell number change came to 17.7%. In addition, under setting [2], the AC50 was 3.26 µM [rising, partial curve, poor fit]. For `Cc1cc(Br)c(NC(=O)COC(=O)CSc2nnc(-c3ccc(Cl)cc3)o2)c(Br)c1`, the AC50 under setting [1] is 0.58 µM [rising, single point]. With `CCc1c(C)nc(SCC(N)=O)c(C#N)c1C`, the cell number change came to 20.9%. The concentration at half-maximal activity (AC50) under setting [1] was 3.66 µM [rising, single point]. Take `Cc1cccn2c(=O)c3cc(S(=O)(=O)c4ccc(Br)cc4)c(=N)n(C4CCCCC4)c3nc12`: the cell number change amounted to 13.4%. As to `CN1/C(=C\C(=O)c2cccc(S(=O)(=O)N3CCCCC3)c2)C(C)(C)c2ccccc21`, the cell number change stood at 8.7%. Under setting [2], the AC50 is 1.84 µM [rising, partial curve]. `N=c1oc2cc(O)ccc2cc1C(=O)Nc1ccc(Cl)cc1`: the cell number change was 73.9%. The AC50 under setting [1] was 32.6 µM [rising, partial curve]. On to `Cc1ccccc1S(=O)(=O)N(CC(O)CN1C(=O)NC(C)(C)C1=O)c1ccccc1` (centres undefined), for which the cell number change is 3.86%. The concentration at half-maximal activity (AC50) under setting [2] was 0.082 µM [falling, full curve, poor fit]. As to `Cc1cccc(/C(N)=N/OC(=O)c2ccccc2Cl)c1`, the concentration at half-maximal activity (AC50) is 0.82 µM [rising, partial curve] under setting [1] and 2.91 µM [rising, partial curve] under setting [2].

As for `NC(=O)CC(NC(=O)c1cccc(Br)c1)c1ccc(N2CCN(c3ccccn3)CC2)c([N+](=O)[O-])c1` (centres undefined), the cell number change is -1.2%.

As to `Cc1ccc(S(=O)(=O)N2[C@@H](c3ccc(Cl)cc3)C(C(=O)O)=CC[C@H]2c2ccc(C(C)C)cc2)cc1`, the cell number change was -38%. The concentration at half-maximal activity (AC50) under setting [1] is 32.6 µM [falling, single point]. Also, the AC50 under setting [2] is 29.1 µM [falling, single point].

As for `COc1ccc(-n2nc3c(N4CCC(C(=O)NCc5ccco5)CC4)nnc(C)c3c2C)cc1`, the cell number change was determined as 6.49%. Moreover, the AC50 under setting [2] is 23.1 µM [rising, single point]. For the compound `COc1ccc(CNC(=O)Cn2c(=O)n(CC(=O)N3CCCCC3)c(=O)c3sccc32)cc1`, the cell number change was -13%. Still for that read-out and setting: under `COCc1cc(C)nc(N)c1C#N` stands 4.78%; under `Cc1ccccc1OCCn1cc(C(=O)O)c2ccccc21`, -18.8%. As for `CC1=C(C(=O)OCc2ccc3c(c2)OCO3)C(c2ccc(Cl)cc2)NC(=O)N1` (centres undefined), the cell number change is 33.8%. Besides, the AC50 under setting [1] is 16.4 µM [rising, single point]. Further, the half-maximal activity concentration (AC50) under setting [2] was 4.61 µM [rising, single point]. For the compound `Cc1ccc(C)c(NC(=O)CSc2nnc(-c3n[nH]c4ccccc34)o2)c1`, the cell number change is -2.82%. Consider `CC(C(=O)c1ccccc1)n1c(N2CCOCC2)nc2c1c(=O)n(C)c(=O)n2C` (centres undefined), for which the cell number change was determined as 17.6%. Moreover, under setting [2], the concentration at half-maximal activity (AC50) was 6.51 µM [rising, single point].

As for `Cc1cc(Nc2cccc(C(F)(F)F)c2)n2nc(C)nc2n1`, the cell number change worked out at 2.7%. In addition, under setting [2], the half-maximal activity concentration (AC50) is 2.91 µM [rising, single point].

Regarding `CCCN1/C(=C2/SC(=S)N(CC)C2=O)C=Cc2ccccc21`, the cell number change is -88.4%. The AC50 under setting [1] is 25.9 µM [falling, single point]. Moreover, the AC50 under setting [2] was 7.31 µM [falling, partial curve]. For `O=C(CSc1nnc(NC(=O)C2CC2)s1)NCc1ccco1`, the concentration at half-maximal activity (AC50) is 0.651 µM [falling, single point] under setting [1] and 0.13 µM [falling, full curve, poor fit] under setting [2]. With `COc1cccc(C(=O)Nc2nnc(S(=O)(=O)N(C)Cc3ccc(F)cc3)s2)c1`, the concentration at half-maximal activity (AC50) under setting [2] is 18.4 µM [falling, single point]. Regarding `COC(=O)c1ccc(COC(=O)c2ccc(S(=O)(=O)N3CCC(C)CC3)cc2)o1`, the cell number change was -24.2%. Also, the AC50 under setting [1] is 0.00651 µM [falling, full curve, poor fit].

With `O=C(NCCc1ccccc1)C1(S(=O)(=O)c2ccc(Cl)cc2)CC1`, the cell number change amounted to 20.7%. Further, the AC50 under setting [2] is 25.9 µM [rising, single point]. For the compound `COc1ccc(C)cc1Nc1n[n+](-c2ccccc2)c(-c2c(OC)ccc3ccccc23)s1`, the cell number change is -69%. The concentration at half-maximal activity (AC50) under setting [1] is 20.6 µM [falling, single point]. Moreover, under setting [2], the AC50 is 29.1 µM [falling, single point]. `COc1ccc(C(=O)N2CC3(CC(c4ccc(Cl)cc4)=NO3)C[C@H]2C(=O)NCC(N)=O)cc1` (some centres undefined): the cell number change worked out at 69.4%.

Consider `CCOc1cccc(CNCCCSc2ncccn2)c1`, for which the cell number change is -13.3%. Besides, the AC50 under setting [2] was 2.59 µM [rising, single point]. As to `O=C(/C=C/c1ccc([N+](=O)[O-])cc1)NCCSCc1ccco1`, the cell number change was -16.7%. In addition, the concentration at half-maximal activity (AC50) under setting [1] was 0.731 µM [rising, single point].

For the compound `COc1ccc(CCN(C)CCN2C(=O)c3ccccc3C2=O)cc1OC`, the cell number change was determined as 2.8%. For the same compound, the AC50 under setting [2] was 0.291 µM [falling, partial curve, poor fit]. In the case of `O=C(COC(=O)c1n[nH]c(=O)c2ccccc12)c1ccccc1`, the cell number change is -43.1%. In addition, under setting [1], the half-maximal activity concentration (AC50) was 3.66 µM [falling, full curve, poor fit]. Under setting [2], the AC50 was 3.66 µM [falling, full curve]. As to `CCc1cc(C(=O)NC2CCCc3c2cnn3-c2cccc(C)c2C)n(C)n1` (centres undefined), the cell number change is -34.2%. The concentration at half-maximal activity (AC50) under setting [1] is 0.0259 µM [falling, full curve]. Further, the concentration at half-maximal activity (AC50) under setting [2] was 0.0731 µM [falling, full curve, poor fit]. As to `O=C(N/N=C/c1c[nH]c2ccccc12)c1ccc(Cl)cc1`, the cell number change is 0.354%. For the same compound, the AC50 under setting [2] was 13 µM [falling, partial curve, poor fit]. `O=C(CN1C(=O)C2C3C=CC(C3)C2C1=O)Nc1ccc2c(c1)OCCO2` (centres undefined): the cell number change is -3.75%. The same measure, in the same setting: then `COc1cccc(-c2ncc3ccccc3c2COC(=O)c2ccccc2C(=O)O)c1`, with -3.84%.
